Data as given in PubChem BioAssay AID1259281 (Sanger Institute, 2017).
Screen: 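Find knock-downs that kill colorectal cancer cells alone or strengthen targeted drugs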 (primary screen). Cell system: human COLO678 colorectal cancer cell line. Reagent: siRNA pool against human genes. Conditions: anchor drugs at fixed doses: BYL719 1 µM, cetuximab 5 µg/ml or trametinib 10 nM; DMSO vehicle for the siRNA-alone arm. Detection: 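Cell viability compared with non-targeting pool wells, averaged over replicates; knock-down-alone effect also as robust z-score; synergy scores set knock-down plus drug against expected joint effect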. Direction: robust z-score, siRNA alone: higher = more viable cells; strongly negative means essential. Rule for the call: 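Called essential (knock-down alone) if knock-down by itself drops cell number to a robust z-score under -3; all others no change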. Calls: active = essential (knock-down alone); inactive = no change.
Shown is an unselected part of 794 reagents. Of all reagents, 22 (2.8%) are marked active. 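Calls rest on knock-down alone only; drug synergy scores play no part in them.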 Not all columns of the deposit are shown. Not given: the amount of reagent, the time to read-out.

gene symbol,"robust z-score, siRNA alone",Outcome
MAP3K4,0.114,inactive
MAPK15,0.473,inactive
DYRK2,0.473,inactive
MAP2K2,0.473,inactive
EIF2AK2,0.473,inactive
PKIA,0.473,inactive
